These are yes or no findings as the source states them, for the method shown. In cells and extracts the contact can be indirect. Some entries that bind do so weakly or less than the wild type. Where a sequence is shown, tags or fusion partners need not be part of it.

Sequences of proteins named here, by UniProt entry; tags and fusion partners are left off. A change or cut given only in a name is not applied to a line headed by its entry.
UniProt Q15208: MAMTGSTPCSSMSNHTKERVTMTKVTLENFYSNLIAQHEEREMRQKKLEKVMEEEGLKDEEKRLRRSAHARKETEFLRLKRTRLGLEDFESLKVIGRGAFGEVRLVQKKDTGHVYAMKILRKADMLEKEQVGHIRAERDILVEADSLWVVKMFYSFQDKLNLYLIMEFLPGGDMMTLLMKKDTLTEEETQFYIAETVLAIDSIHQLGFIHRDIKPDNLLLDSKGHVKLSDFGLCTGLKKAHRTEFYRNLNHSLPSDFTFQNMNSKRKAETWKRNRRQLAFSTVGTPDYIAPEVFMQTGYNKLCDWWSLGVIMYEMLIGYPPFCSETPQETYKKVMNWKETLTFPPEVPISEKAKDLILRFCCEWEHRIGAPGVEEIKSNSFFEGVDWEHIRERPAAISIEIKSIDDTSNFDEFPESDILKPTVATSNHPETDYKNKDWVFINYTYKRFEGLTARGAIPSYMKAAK

The values below come from publication PMC10193238.

This assay has as its target T1, His-TBK1 (Tank-Binding protein Kinase 1) (UniProt Q9UHD2).
T1 sequence: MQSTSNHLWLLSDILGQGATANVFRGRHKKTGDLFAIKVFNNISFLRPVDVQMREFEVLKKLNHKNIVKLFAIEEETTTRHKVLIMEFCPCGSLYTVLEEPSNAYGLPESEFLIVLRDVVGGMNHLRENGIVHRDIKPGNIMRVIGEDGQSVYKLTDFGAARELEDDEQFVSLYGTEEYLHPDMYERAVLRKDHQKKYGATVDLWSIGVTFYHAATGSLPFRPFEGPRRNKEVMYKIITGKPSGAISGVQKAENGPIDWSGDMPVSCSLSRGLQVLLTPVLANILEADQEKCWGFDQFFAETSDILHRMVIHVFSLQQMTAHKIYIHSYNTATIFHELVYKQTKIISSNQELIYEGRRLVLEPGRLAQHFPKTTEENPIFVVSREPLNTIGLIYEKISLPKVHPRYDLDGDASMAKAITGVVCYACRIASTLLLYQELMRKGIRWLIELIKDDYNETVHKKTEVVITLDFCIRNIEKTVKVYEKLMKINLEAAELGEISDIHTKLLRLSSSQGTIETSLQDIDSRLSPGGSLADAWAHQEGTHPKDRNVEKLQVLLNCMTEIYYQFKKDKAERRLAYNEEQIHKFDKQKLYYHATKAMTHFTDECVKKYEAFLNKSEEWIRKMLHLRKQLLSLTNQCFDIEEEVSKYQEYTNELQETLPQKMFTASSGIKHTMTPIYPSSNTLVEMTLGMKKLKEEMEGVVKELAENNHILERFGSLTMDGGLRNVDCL
In words: co-IP; STK38 and His-TBK1 cotransfected in HepG2 cells for 48 h; NP-40 lysis buffer (Hepes 30 mM, NaCl 100 mM, NP-40 0.5%, pH 7.4); 1 mg protein with anti-His antibody on Dynabeads overnight at 4 degrees; Western blot.

For “Myc-STK38 (serine/threonine kinase 38) (from UniProt Q15208 1-465) (enzyme)”, the binding result is “binds”.
The entry for “STK38 T444A mutant (from UniProt Q15208 1-465) (enzyme)” is “no binding”.
